Source: the supplement of paper PMC10338343
± gives the standard deviation. This is a selection; strong and weak results do not stand in their true shares. The uncertainty is large for many entries.

These sequences were tested on MILI (PIWIL2) piRISC loaded with L1MC piRNA (26 nt) (assay: pre-steady-state target cleavage rate (min^-1); MIWI and MILI are mouse PIWI proteins and EfPiwi is from a freshwater sponge; tags in brackets are library labels; higher = faster piRNA-guided slicing of the target). Conditions: guide: L1MC piRNA 5'p-UAACUAAAUACUAUGCAAGCUGUAGG; auxiliary factor: 500 nM mouse GTSF1.
Protocol: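 Cleave-'n-Seq: a library of target RNAs (target site embedded in constant flanks, ACAGCATTCCGCGTTAGTGATATCCG... 5' flank; DNA-blocked outside the site) at 0.1 nM was incubated with 1 nM active mouse MILI or MIWI piRISC (synthetic 5'-monophosphorylated piRNA guide) with or without 500 nM mouse GTSF1 at 33 °C for 1 min to 16 h. Uncleaved targets were sequenced and normalised to non-target controls, and the pooled three trials were fitted to a burst-and-steady-state model to give the pre-steady-state cleavage rate (min^-1; k3 is constrained to at most 1e-4). Sequence is the target site only; target names encode pairing extent (gX:gY) and contiguous / 1-mismatch / 2-mismatch / bulge geometry. Fits with R² ≤ 0 are excluded.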

Row | Sequence | pre-steady-state target cleavage rate
1 | UCCUGGAUGUCCUUGCAUUGUAUUUUGUUA | 0.0388 ± 0.013
2 | UCCUGGAACAGCUUGCAUUCAAUUUAGUUA | 0.00304 ± 0.004
3 | UCCUGCUACAGGAAGCAUAGUAUUUAGUUA | 0.282 ± 0.014
4 | UCCUGGAUGUCGAACGUUUGUUUUUAGUUA | 0.000212 ± 0.038
5 | UCCUGGAUGUCCUUCGUUAGUAUUUAGUUA | 0.00219 ± 0.0059
6 | UCCUGGUACGAGCUUGCAUAGUAUUUAGUUA | 0.247 ± 0.045
7 | UCCUCCUACAGCUUGCAUAGAUUUUUCAAA | 0.0441 ± 0.013
8 | UCCUGGUACACGCUUGCAUAGUAUUUAGUUA | 0.167 ± 0.046
9 | UCCUGGAUGUGCUUGCAAAGAAUUUAGUUA | 0.00234 ± 0.0052

Same assay, conditions: guide: L1MC piRNA 5'p-UAACUAAAUACUAUGCAAGCUGUAGG; auxiliary factor: none (no GTSF1)

Row | Sequence | pre-steady-state target cleavage rate
10 | UCCUGGAUGUCGAUGCAUAGUAAUUUGUUA | 0.00103 ± 0.0052
11 | UCCUGGAUGUCCUUGCAUAGUAUUUACAAA | 0.000831 ± 0.0058
12 | UCCUGGAACAGCUUGCAUAGUAAUAAGUUA | 0.00188 ± 0.0036
13 | UCCUGGAUGUCCUUGCAUUGUAUUUUGUUA | 0.00207 ± 0.0038
14 | UCCUGGAUGUCGAAACAUAGUAUUUAGUUA | 0.00147 ± 0.0051
15 | UCCUGGAUGUCGAUGCAUUGUAUUUAGUAA | 0.000491 ± 0.012
16 | UCCUGGAACAGCUUGCAUUCAAUUUAGUUA | 0.002 ± 0.0029
17 | UCCUGGAUGUGCUUGCUUAGAAUUUAGUUA | 0.00226 ± 0.0032
18 | UCCUGGAACAGCUUGCAUUCAAUUUUCAAA | 0.000956 ± 0.0049
19 | UCCUGGAUGUCGAAGCAUAGUAUAAUGUUA | 0.000904 ± 0.0064
20 | UCCUGGAUGAGCUUGGAUAGUAUUUACUUA | 0.000736 ± 0.0079
21 | UCCUGGAUGUCGAACCAUAGUUAAUAGUUA | 0.000202 ± 0.021
22 | UCCUGGUACAGCUUGCAUACUAUAUAGUUA | 0.00129 ± 0.006
23 | UCCUGCUACAGGAAGCAUAGUAUUUAGUUA | 0.00969 ± 0.0027
24 | UCCUGGAUGUGCUUGCAUACUAUUUACUUA | 0.000894 ± 0.0073
25 | UCCUCCUACAGCUUGCAAUGUAUUUUCAAA | 0.000936 ± 0.0045

Row | Sequence | pre-steady-state target cleavage rate
26 | UCCUGGAUGUCGAACGUUUGUUUUUAGUUA | 0.000111 ± 0.018
27 | UCCUGGAUGUCCUUCGUUAGUAUUUAGUUA | 0.0008 ± 0.0075
28 | UCCUGGUACGAGCUUGCAUAGUAUUUAGUUA | 0.0102 ± 0.0039
29 | UCCUGGAUGUCCUUGCAUAGUAUUUUCUUA | 0.00172 ± 0.0046
30 | UCCUCCUACAGCUUGCAUAGAUUUUUCAAA | 0.00124 ± 0.005
31 | UCCUGGAACAGCUUGCAUAGUAUUGAGUUA | 0.00235 ± 0.0026
32 | UCCUGGAUGAGCUUGCAUAGUAAUAAGUUA | 0.00182 ± 0.004
33 | UCCUGCUACAGCUUGCAUAGUAAUUUGUUA | 0.00173 ± 0.0036
34 | UCCUGGUACACGCUUGCAUAGUAUUUAGUUA | 0.0158 ± 0.0071
35 | UCCUGGAUGUCCUAGCAUAGUAUUUACUUA | 0.00168 ± 0.0031
36 | UCCUGGAUGUCGAAGCACUAGUAUUUAGUUA | 0.000393 ± 0.013
37 | UCCUGGAUGUGCUUGCAAAGAAUUUAGUUA | 0.00274 ± 0.0039
38 | UCCUGCAUGAGCUUGCAUAGUAUUUACAAA | 0.0017 ± 0.0029
39 | UCCUGCUACAGCUACCAUAGUAUUUAGAAA | 0.000922 ± 0.0059
40 | UCCUCCAACAGCUUGCAUAGUAUUUUGUUA | 0.00221 ± 0.003
